Assay: Tilt angle in VA-e/o test cells with LC host mixture N1 before and after UV polymerisation (rotational crystal experiment)
Procedure: The tilt angle is determined by a rotational crystal experiment (Autronic-Melchers TBA-105). A small value (i.e. a large deviation from a 90° angle) corresponds to a large tilt here.
0.3% of a polymerisable monomeric compound from Examples 1 to 10 is added to LC mixture N1, and the resultant mixtures are introduced into VA-e/o test cells (rubbed at 90°, alignment layer VA-polyimide, layer thickness d≈4 μm). Each cell is irradiated for 20 minutes with UV light having an intensity of 28 mW/cm^2 with application of a voltage of 10 V (alternating current), causing polymerisation of the monomeric compound. In a second series of experiments, 0.006% of the photoinitiator Irgacure 651 is additionally added to the LC/monomer mixture, and the exposure time is shortened to 2 minutes. Before and after the UV irradiation, the tilt angle is determined by a rotational crystal experiment (Autronic-Melchers TBA-105).
For comparative purposes, the experiments described above are carried out with the structurally analogous polymerisable compounds (A) and (B) known from the prior art (for example EP 1 498 468 A1), in which the polymerisable groups are linked in the para-position to the mesogenic group.

[1] = 0.3% monomer in LC mixture N1, no initiator, 20 minutes UV 28 mW/cm^2, 10 V alternating current
[2] = 0.3% monomer in LC mixture N1, no initiator, before UV irradiation
[3] = 0.3% monomer in LC mixture N1, with 0.006% photoinitiator Irgacure 651, 2 minutes UV 28 mW/cm^2, 10 V alternating current
[4] = 0.3% monomer in LC mixture N1, with 0.006% photoinitiator Irgacure 651, before UV irradiation

Compound | Tilt after UV [1] [°] | Tilt before UV [2] [°] | Tilt after UV [3] [°] | Tilt before UV [4] [°]
C=C(C)C(=O)Oc1cccc(-c2cccc(OC(=O)C(=C)C)c2)c1 [(1), 3′-(2-Methylacryloyloxy)biphenyl-3-yl 2-methylacrylate] | 87.9 | 89.9 | 87.4 | 89.9
C=CC(=O)Oc1cccc(-c2cccc(OC(=O)C=C)c2)c1 [(2), 3′-Acryloyloxybiphenyl-3-yl acrylate] | 87.2 | 89.9 | 87.0 | 89.9
C=C(C)C(=O)OCCCOc1cccc(-c2cccc(OC(=O)C(=C)C)c2)c1 [(3), 3′-[3-(2-Methylacryloyloxy)propoxy]biphenyl-3-yl 2-methylacrylate] | 87.4 | 89.8 | 87.5 | 89.9
C=C(C)C(=O)OCCCc1cccc(-c2cccc(OC(=O)C(=C)C)c2)c1 [(4), 3′-[3-(2-Methylacryloyloxy)propyl]biphenyl-3-yl 2-methylacrylate] | 83.5 | 89.8 | 84.7 | 89.7
C=C(C)C(=O)Oc1ccc(-c2cc(OC(=O)C(=C)C)cc(OC(=O)C(=C)C)c2)cc1 [(5), 3′,5′-Bis(2-methylacryloyloxy)biphenyl-4-yl 2-methylacrylate] | 86.3 | 89.9 | 84.2 | 89.9
C=CC(=O)Oc1ccc(-c2cc(OC(=O)C=C)cc(OC(=O)C=C)c2)cc1 [(6), 3′,5′-Bis(acryloyloxy)biphenyl-4-yl acrylate] | 85.2 | 89.9 | 80.0 | 89.9
C=C(C)C(=O)OCCc1ccc(-c2cc(OC(=O)C(=C)C)cc(OC(=O)C(=C)C)c2)cc1 [(7), 5-(2-Methylacryloyloxy)-4′-[2-(2-methylacryloyloxy)ethyl]biphenyl-3-yl 2-methylacrylate] | 86.8 | 89.9 | 86.8 | 89.8
C=C(C)C(=O)OCCCCc1cc(-c2cccc(OC(=O)C(=C)C)c2)ccc1OC(=O)C(=C)C [(8), 3′-(2-Methylacryloyloxy)-3-[4-(2-methylacryloyloxy)butyl]biphenyl-4-yl 2-methylacrylate] | 83.4 | 89.9 | 86.8 | 89.7
C=C(C)C(=O)OCCCCc1cc(-c2ccc(OC(=O)C(=C)C)cc2)ccc1OC(=O)C(=C)C [(9), 4′-(2-Methylacryloyloxy)-3-[4-(2-methylacryloyloxy)butyl]biphenyl-4-yl 2-methylacrylate] | 84.5 | 89.9 | 86.1 | 89.8
C=CC(=O)Oc1ccc(-c2cc(CCCCOC(=O)C(=C)C)cc(CCCCOC(=O)C(=C)C)c2)cc1 [(10), 4-{4′-Acryloyloxy-5-[4-(2-methylacryloyloxy)butyl]biphenyl-3-yl}butyl 2-methylacrylate] | 83.7 | 89.9 | 86.0 | 89.8
C=C(C)C(=O)Oc1ccc(-c2ccc(OC(=O)C(=C)C)cc2)cc1 [(A), reference compound] | 81.8 | 89.7 | 84.8 | 89.8
C=CC(=O)Oc1ccc(-c2ccc(OC(=O)C=C)cc2)cc1 [(B), reference compound] | 86.2 | 89.6 | 87.0 | 89.7
